# Experimental data: PubChem BioAssay AID652259 (Drosophila RNAi Screening Center, 2013)
# Assay: 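Genome-wide hunt for genes that control Wingless pathway activity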 (primary screen)
# Cells: Drosophila clone 8 imaginal disc epithelial cells
# Reagents: long dsRNA against Drosophila genes
# Treatment: pathway stimulated by co-transfected Wingless expression plasmid
# Measured: 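Firefly luciferase from a tcf-site Wingless reporter, measured alongside co-transfected Renilla luciferase that tracks transfection; pathway stimulated by a Wingless plasmid; the firefly-to-Renilla ratio is not deposited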
# Reading the numbers: firefly reporter light: higher = more Wg reporter light, before normalisation; Renilla control light: higher = more transfected or surviving cells
# Call rule: 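a knock-down is a candidate when at least two out of four statistical tests show it departing from its plate mean; one test alone signals a weak candidate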
# Calls: active = candidate regulator (raises or lowers reporter); inactive = not a candidate
# In all, the deposit lists about 22,000 reagents; shown is an unselected part of those with a known target gene and a result. Of all reagents, 233 (1.1%) are marked active. 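Light values are raw, unnormalised plate reads; the ratio scores behind the reporter calls were not deposited.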 Names joined by + are all predicted targets of the reagent. Not given: the amount of reagent, the time to read-out, the dose of the treatment.
gene knocked down,dsRNA,"reporter change call, replicate 1","firefly reporter light, replicate 1","firefly reporter light, replicate 2","Renilla control light, replicate 1","Renilla control light, replicate 2",Call
mlt (retired record) (GeneID 44912),DRSC06120,,8804,,3337,,inactive
CG15800 (GeneID 37763),DRSC04271,,2021,8304,647,2288,inactive
Eig71Ef (GeneID 39707),DRSC11153,,8539,,4525,,inactive
lobo (GeneID 4379864),DRSC14662,,19396,,14277,,inactive
lobo (GeneID 4379864),DRSC14663,,13568,,14257,,inactive
RPA2 (GeneID 35364),DRSC03184,,8101,,2624,,inactive
jdp (GeneID 43630),DRSC16975,,3911,7387,1362,1056,inactive
lncRNA:CR43334 (GeneID 12798545),DRSC07894,,4292,,1978,,inactive
lncRNA:CR43334 (GeneID 12798545),DRSC07895,,1564,,1315,,inactive
CG14186 (GeneID 40196),DRSC10185,,3136,,1275,,inactive
beta3GalTII (GeneID 35848),DRSC07253,,2458,5639,901,2433,inactive
RpL29 (GeneID 37430),DRSC04650,,3243,4864,677,1873,inactive
Ir100a (GeneID 43753),DRSC14329,,22280,7.08e5,18874,2.46e5,inactive
Cyp316a1 (GeneID 38840),DRSC11130,,1511,7878,1290,3045,inactive
Alr (GeneID 32991),DRSC19469,,17899,,11837,,inactive
Edg84A (GeneID 40818),DRSC12594,,7197,,1856,,inactive
CG13744 (GeneID 35906),DRSC06415,,3216,7716,1385,3312,inactive
CCT3 (GeneID 42029),DRSC16602,,3255,7314,1568,2118,inactive
dpr7 (GeneID 2768865),DRSC17109,,3264,,1180,,inactive
CG34165 (GeneID 5740685),DRSC01970,Wg reporter activity raised,5337,13335,615,1232,active
Pus10 (GeneID 33178),DRSC00629,,4909,,1889,,inactive
Gs2 (GeneID 32087),DRSC20250,,15536,,10464,,inactive
TMEM216 (GeneID 41035),DRSC16378,,15784,,4533,,inactive
Atox1 (GeneID 326216),DRSC22416,,6.70e5,6.65e5,2.19e5,67929,inactive
CG6610 (GeneID 38693),DRSC10674,,1658,8656,848,2937,inactive
Rab11 (GeneID 42501),DRSC16809,,13142,,5032,,inactive
Gfat2 (GeneID 43373),DRSC14598,,2651,4493,787,880,inactive
Hibch (GeneID 41869),DRSC15705,,14835,,3004,,inactive
disco-r (GeneID 64875),DRSC20173,,27074,,10883,,inactive
disco-r (GeneID 64875),DRSC20174,,25501,,11553,,inactive
CG18213 (GeneID 42055),DRSC15316,,13829,,3270,,inactive
CG14609 (GeneID 40864),DRSC12553,,9286,,2676,,inactive
mas (GeneID 38499),DRSC08720,,6283,,2242,,inactive
Mbs (GeneID 49070),DRSC09414,,2597,,928,,inactive
Mbs (GeneID 49070),DRSC10525,,6013,,2354,,inactive
Mbs (GeneID 49070),DRSC10553,,10153,9.19e5,5163,5.45e5,inactive
Spn77Bb + Spn77Bc,DRSC10689,,20643,,7997,,inactive
Spn77Bb + Spn77Bc,DRSC11793,,14641,,5888,,inactive
Pi3K68D (GeneID 39329),DRSC11253,,5281,,1781,,inactive
Cmpk (GeneID 43165),DRSC16643,,3739,8010,1562,2705,inactive
AIMP1 (GeneID 35892),DRSC07118,,3418,9088,1488,3549,inactive
qua (GeneID 35058),DRSC03598,,2070,5106,1121,3133,inactive
CalpB (GeneID 39165),DRSC11109,,3959,,1496,,inactive
CG15347 (GeneID 31779),DRSC18031,,23477,,12886,,inactive
Dnaaf6 (GeneID 39598),DRSC10473,,7281,,2603,,inactive
OtopLc (GeneID 7354434),DRSC18082,,18258,,8450,,inactive
OtopLc (GeneID 7354434),DRSC18083,,10832,,7307,,inactive
OtopLc (GeneID 7354434),DRSC18132,,16432,,8403,,inactive
CG15831 (retired record) (GeneID 3355006),DRSC20816,,19907,,8481,,inactive
LanB2 (GeneID 39118),DRSC11208,,3362,,1442,,inactive
kmr (GeneID 5740131),DRSC12986,,5292,,2028,,inactive
kmr (GeneID 5740131),DRSC14827,,20231,,2634,,inactive
kmr (GeneID 5740131),DRSC14828,,9762,,1457,,inactive
kmr (GeneID 5740131),DRSC16472,,6002,,2333,,inactive
stas (GeneID 32737),DRSC20104,,3597,10124,1289,4976,inactive
Vlet (GeneID 32116),DRSC19845,,4521,9728,746,2736,inactive
Sesn (GeneID 37755),DRSC04101,,11890,,4829,,inactive
Sesn (GeneID 37755),DRSC04102,,4970,9821,1383,4006,inactive
Sesn (GeneID 37755),DRSC04103,,3632,8185,859,3456,inactive
Wnt2 (GeneID 35975),DRSC05160,,16701,,8456,,inactive
Wnt2 (GeneID 35975),DRSC07574,,2544,7475,731,3162,inactive
p-cup (GeneID 32727),DRSC19513,Wg reporter activity lowered,6322,,8182,,active
lsn (GeneID 42572),DRSC16081,,30621,,6144,,inactive
CG4328 (GeneID 39405),DRSC10410,Wg reporter activity raised,8935,,704,,active
mgr (GeneID 41365),DRSC16099,,10820,,3496,,inactive
Cirl (GeneID 35846),DRSC07227,,15242,,1577,,inactive
Cirl (GeneID 35846),DRSC21942,,8.51e5,9.76e5,1.03e5,1.14e5,inactive
CG7889 (GeneID 32916),DRSC20066,,2899,9174,976,4138,inactive
CG11842 (GeneID 43431),DRSC14400,,4512,10490,2148,1493,inactive
CG1671 (GeneID 36019),DRSC06617,,6153,,1512,,inactive
RpL9 (GeneID 34526),DRSC03418,,3572,8736,897,3348,inactive
SMC3 (GeneID 32627),DRSC20227,,20994,,6507,,inactive
hook (GeneID 35169),DRSC03545,,7216,,1164,,inactive
nerfin-2 (GeneID 41235),DRSC14547,,14704,,3488,,inactive
Rsbp15 (GeneID 41481),DRSC14176,,9915,,3460,,inactive
SamDC (GeneID 34396),DRSC03429,,8074,,3088,,inactive
Ctns (GeneID 42723),DRSC15175,,18097,,13795,,inactive
Catsup (GeneID 48805),DRSC03288,,2697,3889,707,1811,inactive
CG30082 (GeneID 246443),DRSC22945,,7.13e5,6.72e5,3.39e5,96792,inactive
svr (GeneID 30998),DRSC17293,,2534,,937,,inactive
svr (GeneID 30998),DRSC18841,,31712,,23144,,inactive
CG16710 (GeneID 42790),DRSC15136,,15744,,11777,,inactive
CG31741 (GeneID 35079),DRSC02887,,1581,4331,950,1922,inactive
CG30122 (GeneID 37146),DRSC06776,,24496,,6803,,inactive
CG30122 (GeneID 37146),DRSC06935,,11511,,2621,,inactive
Tbc1d8-9 (GeneID 40361),DRSC11820,,5137,,915,,inactive
CG15715 (GeneID 39726),DRSC10216,,8920,,4122,,inactive
Delta (GeneID 42313),DRSC16648,,11521,,1875,,inactive
kairos (GeneID 32815),DRSC19972,,3044,11778,1362,3001,inactive
ND-49 (GeneID 43798),DRSC17151,,17611,,11984,,inactive
TotB (GeneID 42474),DRSC15842,,14162,,3012,,inactive
GstE7 (GeneID 37112),DRSC06677,,18577,,5345,,inactive
SkpE (GeneID 32997),DRSC19431,,24250,,13419,,inactive
